Results taken from PubChem BioAssay AID504444 (National Center for Advancing Translational Sciences (NCATS), 2011).
Out of some 360,000 compounds screened, about 7,500 (2.1%) were called active. This list was built around the results that the source calls inconclusive (neither active nor inactive); the mix of calls is not that of the screen. Calls follow the shape of the dose curve; as a rule, active = well fitted inhibition curve with a large enough effect; inconclusive = small, poorly fitted or top-dose-only effect, or effect the other way; inactive = flat fitted curve, though single readings scatter. Where the call is inconclusive, the potency comes from a doubtful curve fit.
Potency is read from the fitted curve at half-maximal effect.

Experiment: Nrf2 qHTS screen for inhibitors; also: nearly all actives have a fitted effect of over 60% in size
Details: A549 ARE-Fluc reporter, luciferase luminescence, 18-24 h; series mostly up to 46 µM
Procedure, shortened: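 Two sequential reads on A549 ARE_Fluc cells exposed to compound for 18-24 h: a CellTiter-Fluor fluorescence read for viability, then a luciferase luminescence read for Nrf2/ARE activity.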
In the case of `O=C(CN1CCSCC1)N/N=C/c1ccc(F)cc1F`, the Potency was inconclusive: 5.17 µM [falling, single point]. For `COc1ccc(NC(C)=O)cc1NC(=O)c1cccc(S(=O)(=O)N2CCc3ccccc32)c1`, the Potency was inconclusive: 13 µM [falling, partial curve]. In the case of `Cc1cccc(C(=O)Nc2ccc3c(c2)ncn3C)c1`, the Potency was inconclusive: 29.1 µM [activator, single point]. For `COc1ccc(-c2noc(CCc3ccccc3)n2)cc1`, the Potency was inconclusive: 25.9 µM [activator, single point]. In the case of `O=C(Nc1ccc(Cl)cn1)Nc1ccccc1F`, the Potency was inconclusive: 3.26 µM [activator, full curve]. With `CCC1C(C#N)=C(SCC(N)=O)NC2=C1C(=O)CC(C)(C)C2` (stereo not drawn) the Potency was “inactive”. In the case of `N#C/C(=C\c1ccccc1C(=O)O)c1nc2ccccc2[nH]1`, the Potency was inconclusive: 0.92 µM [activator, full curve]. With `COc1cccc(C(=O)Nc2c(C(=O)Nc3ccc(F)cc3)oc3ccccc23)c1OC` the Potency was “inactive”. In the case of `COc1ccc(-c2noc(CCC(=O)Nc3cccc(C)c3)n2)cc1`, the Potency was inconclusive: 8.2 µM [falling, partial curve]. In the case of `Cc1ccc2onc(CC(=O)N3CCN(c4cccc(Cl)c4)CC3)c2c1`, the Potency was inconclusive: 25.9 µM [falling, single point]. With `O=C(CSc1nc2[nH]ncc2c(=O)n1-c1ccc(Cl)c(Cl)c1)NCc1ccccc1Cl` the Potency was inconclusive: 9.2 µM [falling, partial curve, poor fit]. With `O=C(N/N=C/c1ccc([N+](=O)[O-])cc1)c1cnccn1` the Potency was inconclusive: 4.61 µM [activator, full curve, poor fit]. In the case of `CN(CCOc1ccccc1)C(=O)c1ccc2c(c1)OCO2`, the Potency was “inactive”. In the case of `C=CCSc1nc(N)c2c(C)c(C)sc2n1`, the Potency was inconclusive: 18.4 µM [activator, single point]. For `COc1ccccc1CN1C(=O)CN(C2CCCC2)C(=O)C1c1ccc(F)cc1` (stereo not drawn), the Potency was inconclusive: 20.6 µM [falling, single point]. With `CCn1c(CSc2nc(C)cc(C)n2)nnc1SCC(=O)Nc1nc(-c2ccccc2)cs1` the Potency was inconclusive: 13 µM [falling, partial curve, poor fit]. For `O=C(c1ccco1)N1CCN(Cc2cc(=O)c(OCc3ccc([N+](=O)[O-])cc3)co2)CC1`, the Potency was inconclusive: 29.1 µM [falling, single point]. In the case of `Cc1cc(SC#N)cc(C)c1NC(=O)CCl`, the Potency was “inactive”. In the case of `COCCSc1nnc(NC(=O)c2ccc([N+](=O)[O-])cc2)s1`, the Potency was inconclusive: 4.61 µM [activator, full curve, poor fit]. For `Cc1cc(=S)nc(-c2ccccn2)[nH]1`, the Potency was inconclusive: 25.9 µM [falling, partial curve, poor fit]. In the case of `O=C(COc1ccc2ccc(=O)oc2c1)N1CCN(C(=O)C2COc3ccccc3O2)CC1` (stereo not drawn), the Potency was “inactive”. For `CSC1=NC(=O)/C(=C\c2cccc3ccccc23)S1`, the Potency was “inactive”. For `CC(C)C(=O)NC(c1ccco1)c1c(O)ccc2ccccc12` (stereo not drawn), the Potency was “inactive”. In the case of `O=S(=O)(c1ccc(NC(=S)N/N=C/c2c3ccccc3cc3ccccc23)cc1)N1CCOCC1`, the Potency was active: 9.2 µM. For `CCn1c(=NC(=O)c2ccc(S(=O)(=O)N3CCOCC3)cc2)sc2cccc(OC)c21`, the Potency was inconclusive: 29.1 µM [falling, single point]. With `COc1ccc(Br)cc1C1NC(c2ccc3c(c2)OCO3)=CC(c2ccccc2O)N1` (stereo not drawn) the Potency was inconclusive: 6.51 µM [activator, partial curve, poor fit]. With `COc1cc(OC)c(N(C)C(=O)Nc2cn(CC(C)C)c(=O)c3ccccc23)cc1Cl` the Potency was inconclusive: 32.6 µM [activator, single point]. For `CCCc1nn2c(=O)cc(COC(=O)CNC(=O)COc3ccc(C)cc3)nc2s1`, the Potency was inconclusive: 10.3 µM [activator, partial curve, poor fit]. In the case of `CC(=O)Nc1ccccc1OCc1nnc(-c2ccccc2Cl)o1`, the Potency was inconclusive: 7.31 µM [activator, partial curve, poor fit]. For `Cn1c(-c2csc(-c3ccccc3)n2)n[nH]c1=S`, the Potency was inconclusive: 18.4 µM [activator, single point]. For `COc1ccc(OC)c(NC(=O)CCOc2cccc(C)c2)c1`, the Potency was inconclusive: 29.1 µM [falling, single point]. For `COc1ccc(NC(=O)/C=C/c2ccc(F)cc2)cn1`, the Potency was inconclusive: 18.4 µM [activator, single point]. In the case of `COc1ccc(CCNC(=O)C(=O)NCC2OCCN2S(=O)(=O)c2ccc3c(c2)OCCO3)cc1OC` (stereo not drawn), the Potency was inconclusive: 14.6 µM [falling, partial curve, poor fit]. In the case of `Cc1ccc(/C=N/NC(=S)N2CCOCC2)cc1`, the Potency was inconclusive: 20.6 µM [activator, partial curve, poor fit]. For `O=C(O)c1ccccc1N=Nc1ccc(O)cc1`, the Potency was inconclusive: 29.1 µM [falling, single point]. With `COc1cccc(Nc2nc(N)nc(CCl)n2)c1` the Potency was “inactive”. With `O=C(Nc1cccc(C(F)(F)F)c1)C1CCCN(c2ncccn2)C1` (stereo not drawn) the Potency was “inactive”. With `O=C1C(=C2SCCCS2)CC/C1=C\c1ccc(F)cc1` the Potency was inconclusive: 0.146 µM [activator, full curve, poor fit]. In the case of `Cc1ccc(/C=C/c2nnc(-c3ccccc3)o2)cc1`, the Potency was inconclusive: 8.2 µM [activator, partial curve]. In the case of `CC(C)(C)N(Cc1ccccc1)C(=O)COC(=O)C1CCN(c2ccc(C(F)(F)F)cn2)CC1`, the Potency was inconclusive: 29.1 µM [falling, single point]. For `O=C(O)c1ccc(Nc2ncc([N+](=O)[O-])cc2[N+](=O)[O-])cc1`, the Potency was “inactive”. With `CCOc1ccc(CN(C)C(=O)CNC(=O)Cc2cccc3ccccc23)cc1` the Potency was inconclusive: 16.4 µM [falling, partial curve]. For `COc1cccc(NC(=O)CN2C(=O)c3ccccc3Sc3ncccc32)c1`, the Potency was inconclusive: 18.4 µM [activator, single point].
